Assay results from PMC6030175.

System: RPA
Test: EMSA
Settings: 5 mM Mg2+, RPA 10 nM, DNA 1 nM, positive control; EMSA: 20 mM HEPES pH 7.4, 0.1% NP-40, 0.1 M KCl, 5 mM MgCl2, 1% glycerol, 0.25 ug/uL BSA, 1 mM DTT, 30 min, room temperature; 5% native gel, 0.5x TBE; recombinant protein; label: 5' 32P; single-stranded DNA

## AACGTCATAGACGATTACATTGCTAGGACATCTTTGCCCACGTTGACCCA [X4]
  binding result: binds

For at least one entry, the source does not settle the construct or the ends of the probe. At least one verdict was read from the data and is not stated in words by the source.
